{"source": "patent US20070155720A1", "about": "“Co-administration of dopamine-receptor binding compounds” (DarPharma, Inc., priority 2003, published 2007)", "test_system": "patients with schizophrenia", "conditions": "6 subjects on stable atypical antipsychotics, 12 weeks, blind cross-over", "data": [{"compound": "COc1cc2c(cc1OC)C(=O)C(CC1CCN(Cc3ccccc3)CC1)C2", "note": "(stereo not shown) [Donepezil]", "values": [{"measurement": "Brain activity (BOLD fMRI) compared to placebo and baseline scans", "result": "functional normalization with an increase in leftfrontal lobe and cingulate activity"}]}]}
